Data from the supplement of paper PMC3334620.
Over roughly 33,000 sequences, “E-score (-0.5 to 0.5)” has its median near -0.0034; the highest 2% begin near 0.25. Some of the results follow.

target: T1, Yap3 (UniProt P38749); assay: PBM E-score (8-mer binding enrichment) (E-score (-0.5 to 0.5)); higher = stronger / more preferred TF binding; conditions: protein concentration: 100 nM; construct: GST-full length
T1 sequence: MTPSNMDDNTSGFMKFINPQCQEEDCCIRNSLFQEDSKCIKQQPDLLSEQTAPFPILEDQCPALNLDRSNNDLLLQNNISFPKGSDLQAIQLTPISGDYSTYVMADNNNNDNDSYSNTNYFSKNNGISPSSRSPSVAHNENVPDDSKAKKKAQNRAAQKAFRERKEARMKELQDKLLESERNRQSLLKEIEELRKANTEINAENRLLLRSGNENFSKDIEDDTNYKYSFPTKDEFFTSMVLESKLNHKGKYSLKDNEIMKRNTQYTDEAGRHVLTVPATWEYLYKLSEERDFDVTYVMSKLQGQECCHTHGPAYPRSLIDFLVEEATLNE
Procedure, shortened: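 Full-length yeast transcription factors or their DNA-binding domains, GST-tagged and expressed with PURExpress, were applied at about 100-200 nM to universal all-10-mer Agilent arrays. These arrays had been made double-stranded by primer extension on fresh or once-stripped slides. Detection used fluorescent anti-GST, normalisation used masliner, and E-scores for ungapped eight-base words pooled with reverse complements came from the Universal PBM Analysis Suite.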

| Sequence | PBM E-score |
| --- | --- |
| CCCCGCTC | -0.294 |
| ATGAGATG | 0.124 |
| TACACTAA | 0.077 |
| ACCGCCCC | -0.091 |
| ACATCACG | 0.00575 |
| GAAACCCC | -0.174 |
| AGGGCTGC | -0.241 |
| CATCAGAA | 0.146 |
| GGACACGA | -0.0635 |
| ATTTCGGA | 0.189 |
| GTGTGTCA | 0.19 |
| GGGTTTGA | 0.00605 |
| AACTAGGC | -0.0303 |
| CGCTTCCG | -0.104 |
| AGTTCCCG | -0.0921 |
| AGCAAGAA | 0.0883 |
| GAGCCAAC | -0.14 |
| GAGTTGAC | -0.0209 |
| CAGCGATG | -0.0121 |
| ACCGGACT | -0.0832 |
| CAGTCCTA | -0.0911 |
| CGTGGTCA | -0.112 |
| ATAAAATG | 0.276 |
| ACTCTGGC | -0.15 |

| Sequence | PBM E-score |
| --- | --- |
| AATATTAC | 0.31 |
| GGGCGCAC | -0.228 |
| CTCCCTAC | -0.192 |
| CAGTATCC | 0.14 |
| CGGATAAC | 0.106 |
| GAACCGAC | -0.0587 |
| AAGGACCA | -0.138 |
| ATATCGCA | -0.155 |
| AGCGGGAT | -0.0384 |
| ATCATCGG | -0.125 |
| ACCCCCAC | -0.376 |
| TAAGGGGA | -0.134 |
| ATAACAAT | 0.137 |
| ATTGACGC | 0.0954 |
| ACTTCGAA | 0.0916 |
| GCGCGTTA | 0.121 |
| AGCGTCAA | -0.0742 |
| AGAGTCAT | -0.203 |
| ATGGTCGA | -0.0135 |
| AGGATGAC | 0.0263 |
| ACACGTGT | 0.0329 |
| ACAGATGG | 0.00201 |
| CGGTATTA | 0.13 |
| CCGCCAGC | -0.196 |

| Sequence | PBM E-score |
| --- | --- |
| GGAAGAGA | -0.0406 |
| GAACGTCA | -0.114 |
| CTGTTGGA | 0.119 |
| AGACAGAA | 0.0388 |
| CCGGGAGG | -0.313 |
| CGAAATGA | 0.136 |
| CAGAAGGC | -0.157 |
| ATTGAGTA | 0.238 |
| ATTTCATG | -0.0106 |
| GATATGGC | -0.0107 |
| GGAGACTA | -0.113 |
| CTACCAAG | -0.126 |
| AGCGTACT | 0.0579 |
| AAGGCCAG | -0.142 |
| ATATGTTG | 0.212 |
| CAACGAAG | -0.144 |
| AGGGCGGG | -0.21 |
| AGACCAAT | 0.135 |
| TACTTGAA | -0.00176 |
| GCAGTACA | -0.0831 |
| ATGGACAG | -0.079 |
| ATATCTCC | 0.209 |
| GTGAAGAA | 0.0364 |
| GGAAATCA | 0.133 |

Taken from above:
GGAAGAGA | PBM E-score: -0.0406
AGACCAAT | PBM E-score: 0.135
CAGAAGGC | PBM E-score: -0.157

Some of the entries so far, with each value named:
CCGGGAGG
  PBM E-score = -0.313
CGAAATGA
  PBM E-score = 0.136

Following part.

| Sequence | PBM E-score |
| --- | --- |
| CCCCAAAG | -0.191 |
| AGGTGCAA | 0.103 |
| GTCGAGAA | 0.0532 |
| ATCGCCAT | -0.0375 |
| AAACGCGA | 0.218 |
| GTCGCGTA | 0.165 |
| ATCCGCTC | -0.182 |
| ATTAAAAG | 0.0983 |
| ATAAAGAC | 0.0209 |
| ACTTATAG | -0.0355 |
| AAGCGAGT | 0.156 |
| ACACACAC | -0.0039 |
| CGAGAATA | 0.244 |
| GGATTACA | 0.0243 |
| GAAGGGGC | -0.272 |
| TGAGAACA | 0.149 |
| CATCGGCA | -0.0615 |
| CATCTTGG | -0.0384 |
| AGTGATAT | 0.0783 |
| CGAAGTAC | 0.0458 |
| GACAGACA | 0.186 |
| AACATGTC | 0.0511 |
